Test results from the supplement of paper PMC3741180, “A Novel High Throughput Biochemical Assay to Evaluate the HuR Protein-RNA Complex Formation” (PLoS ONE, 2013).
“And” between values parts separate entries of the source, which are not always exact repeats. Equal values may be shown once. The list shows a part of the results. Repeats in this data set agree poorly, so a single value says little. Numbered stars: 1 amine (or outer) side, 2 acyl side, 3 side chain; on linkers, the order of the positions; unused ones are H or OH. Bridge positions count the residues as written; N and C are the ends. Square brackets hold non-standard residues; d marks the D form. Peptide text beside a SMILES is read from it. I, II: the chains in the order shown. Actinocin(9to1) = Cc1c2oc3c(C)ccc(C(=O)[*:1])c3nc-2c(C(=O)[*:2])c(N)c1=O; NMeV = CN[C@H](C(=O)O)C(C)C; Sar = CNCC(=O)O

Amino acid sequences for entries named in this document (tags omitted).
UniProt Q15717, whole entry: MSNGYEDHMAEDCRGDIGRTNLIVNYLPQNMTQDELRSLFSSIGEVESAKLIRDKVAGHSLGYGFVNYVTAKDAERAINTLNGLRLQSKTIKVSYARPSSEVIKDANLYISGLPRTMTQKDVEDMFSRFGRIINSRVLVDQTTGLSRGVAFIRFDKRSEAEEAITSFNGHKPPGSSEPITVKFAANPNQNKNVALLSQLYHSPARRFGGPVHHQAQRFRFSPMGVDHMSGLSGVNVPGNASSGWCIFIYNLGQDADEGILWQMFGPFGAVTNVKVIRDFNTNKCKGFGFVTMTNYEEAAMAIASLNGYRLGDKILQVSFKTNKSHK

The compounds below were run against HuR (ELAVL1) - TNFalpha ARE RNA complex (UniProt Q15717) (assay: AlphaScreen HuR-RNA complex signal Z-score relative to positive (Bi-TNF, DMSO) controls (Z-score (SD units of positive control)); higher = more complex signal). Settings: screen stage: primary screen; compound concentration: 25 nM.

`NC[C@H]1O[C@H](O[C@H]2[C@H](O)[C@@H](O[C@H]3O[C@H](CO)[C@@H](O)[C@H](N)[C@H]3O)[C@H](N)C[C@@H]2N)[C@H](N)[C@@H](O)[C@@H]1O` was tested. Which “AlphaScreen HuR-RNA complex signal Z-score” value did it give?
The value was -0.118.

How did the “AlphaScreen HuR-RNA complex signal Z-score” value turn out when `Nc1nnc(-c2cccc(Cl)c2Cl)c(N)n1` was run?
The value was -4.08.

How did the “AlphaScreen HuR-RNA complex signal Z-score” value turn out when `O=C(O)/C=C(\CC(=O)O)C(=O)O` was run?
The value was 3.16.

Which “AlphaScreen HuR-RNA complex signal Z-score” value does the source give for `Nc1nc(=O)[nH]cc1F` here?
The value was 0.794.

For `OCC(O)C(O)C(O)CO` (centres undefined), which “AlphaScreen HuR-RNA complex signal Z-score” value is on record?
Its value is 1.73 and 1.91.

`CC1CCC2(OC1)OC1CC3C4CCC5C[C@@H](O)CCC5(C)C4=CCC3(C)C1[C@@H]2C` (stereo partly drawn) [3beta-HYDROXYISOALLOSPIROST-9(11)-ENE] was tested. Which “AlphaScreen HuR-RNA complex signal Z-score” value did it give?
The value was 1.45.

For `CCC(C)C(=O)OC1[C@@H]2CC3=C4CC(=O)O[C@@H](c5ccoc5)[C@]4(C)CCC3[C@@](C)(C2=O)[C@@H](CC(=O)OC)C1(C)C` (some centres undefined), which “AlphaScreen HuR-RNA complex signal Z-score” value is on record?
The value was 0.0171.

Which “AlphaScreen HuR-RNA complex signal Z-score” value does the source give for `CC[C@H](C)C(=O)O[C@H]1C[C@H](O)C=C2C=C[C@H](C)[C@H](CC[C@@H](O)C[C@@H](O)CC(=O)O)[C@H]21` here?
The value was 1.75.

`CC1=C(C(=O)O)N2C(=O)[C@@H](NC(=O)[C@H](N)c3ccccc3)[C@H]2SC1` was tested. Which “AlphaScreen HuR-RNA complex signal Z-score” value did it give?
The value was 1.51.

`CC(C)(C)NCC(O)COc1cccc2c1CC(O)C(O)C2` (centres undefined) was tested. Which “AlphaScreen HuR-RNA complex signal Z-score” value did it give?
Its value is 0.124.

`CN(C)CC(=O)OC[C@@H](O)[C@@H](O)[C@H](O)[C@@H](O)C(=O)O` was tested. Which “AlphaScreen HuR-RNA complex signal Z-score” value did it give?
The value was 0.562.

How did the “AlphaScreen HuR-RNA complex signal Z-score” value turn out when `Cc1cc(O)cc(O)c1C(=O)O` was run?
Its value is 2.26.

`COc1ccc2cc3[n+](cc2c1OC)CCc1cc2c(cc1-3)OCO2` was tested. Which “AlphaScreen HuR-RNA complex signal Z-score” value did it give?
The value was 0.89.

With `COc1ccc2c(c1)OC[C@@H](Cc1ccc(OC)c(OC)c1)[C@@H]2O` as the compound, how does the “AlphaScreen HuR-RNA complex signal Z-score” value read?
Its value is 1.56.

With `COC(=O)C[C@H]1C(C)(C)C(=O)[C@@H]2CC3C4=CC(=O)O[C@@H](c5ccoc5)[C@]4(C)CC[C@@H]3[C@@]1(C)C2=O` (some centres undefined) as the compound, how does the “AlphaScreen HuR-RNA complex signal Z-score” value read?
The value was -0.0269.

Which “AlphaScreen HuR-RNA complex signal Z-score” value does the source give for `CC(C)=CC1C(C(=O)O)C1(C)C` (centres undefined) here?
The value was 0.876.

`CC(C)Cn1c(=O)n(C)c(=O)c2nc[nH]c21` was tested. Which “AlphaScreen HuR-RNA complex signal Z-score” value did it give?
The value was 1.28.

How did the “AlphaScreen HuR-RNA complex signal Z-score” value turn out when `O=C1C(O)=C(O)C(=O)C(O)=C1O` was run?
Its value is 0.261.

`Cc1c2oc3c(C)ccc(C(=O)N[C@@H]4C(=O)N[C@H](C(C)C)C(=O)N5CCC[C@H]5C(=O)N(C)CC(=O)N(C)[C@@H](C(C)C)C(=O)O[C@@H]4C)c3nc-2c(C(=O)N[C@@H]2C(=O)N[C@H](C(C)C)C(=O)N3CCC[C@H]3C(=O)N(C)CC(=O)N(C)[C@@H](C(C)C)C(=O)O[C@@H]2C)c(N)c1=O` (I: T[dV]P[Sar][NMeV] / II: T[dV]P[Sar][NMeV]; ester I:1-I:C, II:1-II:C; linker I:N-II:N via Actinocin(9to1)) was tested. Which “AlphaScreen HuR-RNA complex signal Z-score” value did it give?
The value was 0.332.

How did the “AlphaScreen HuR-RNA complex signal Z-score” value turn out when `COc1ccc2c(c1)c(CC(=O)OCC(=O)O)c(C)n2C(=O)c1ccc(Cl)cc1` was run?
Its value is 1.65.

With `COCCCOc1cc(C[C@@H](C[C@H](N)[C@@H](O)C[C@H](C(=O)NCC(C)(C)C(N)=O)C(C)C)C(C)C)ccc1OC` as the compound, how does the “AlphaScreen HuR-RNA complex signal Z-score” value read?
The value was -0.11.

`C#C[C@]1(OC(C)=O)CC[C@H]2[C@@H]3CCC4=CC(=O)CC[C@@H]4[C@H]3CC[C@@]21C` was tested. Which “AlphaScreen HuR-RNA complex signal Z-score” value did it give?
Its value is 1.69.

Which “AlphaScreen HuR-RNA complex signal Z-score” value does the source give for `CCCCOC(=O)c1ccc(O)cc1` here?
Its value is 2.72.

How did the “AlphaScreen HuR-RNA complex signal Z-score” value turn out when `CC(=O)/N=c1/sc(S(N)(=O)=O)nn1C` was run?
The value was 1.58.

With `CC1=CC(=O)c2ccccc2C1=O` as the compound, how does the “AlphaScreen HuR-RNA complex signal Z-score” value read?
Its value is 0.382.

How did the “AlphaScreen HuR-RNA complex signal Z-score” value turn out when `COc1ccc(-c2cc(=O)c3c(O)c(OC)c(OC)c(OC)c3o2)cc1OC` was run?
The value was -0.606.

For `N=C(N)N1CCc2ccccc2C1`, which “AlphaScreen HuR-RNA complex signal Z-score” value is on record?
The value was 1.29.

How did the “AlphaScreen HuR-RNA complex signal Z-score” value turn out when `CCCCC1C(=O)N(c2ccccc2)N(c2ccccc2)C1=O` was run?
The value was 1.13.

For `O=C(O)/C=C/C=C/c1ccccc1`, which “AlphaScreen HuR-RNA complex signal Z-score” value is on record?
The value was 4.14.

How did the “AlphaScreen HuR-RNA complex signal Z-score” value turn out when `Cc1ccc(C(=O)C(C)CN2CCCCC2)cc1` (centres undefined) was run?
The value was 0.984.

For `CNCC[C@@H](Oc1ccccc1C)c1ccccc1`, which “AlphaScreen HuR-RNA complex signal Z-score” value is on record?
The value was -0.651.

Which “AlphaScreen HuR-RNA complex signal Z-score” value does the source give for `COc1cc(C(C)=O)cc(OC)c1O` here?
The value was 1.98.

Which “AlphaScreen HuR-RNA complex signal Z-score” value does the source give for `CC(C)=CCC/C(C)=C\CO` here?
Its value is 2.12.

With `COCCCOc1ccnc(C[S+]([O-])c2nc3ccccc3[nH]2)c1C` (centres undefined) as the compound, how does the “AlphaScreen HuR-RNA complex signal Z-score” value read?
The value was -0.402.

For `C#CC1(O)CC[C@H]2[C@@H]3CCC4=CC(=O)CC[C@@H]4[C@H]3CC[C@@]21CC` (mixture of isomers), which “AlphaScreen HuR-RNA complex signal Z-score” value is on record?
Its value is 2.48.

With `COc1cc(O)c(C(=O)/C=C/c2ccc(O)c(OC)c2)c(OC)c1` as the compound, how does the “AlphaScreen HuR-RNA complex signal Z-score” value read?
The value was 1.08.

With `CC(=O)OCC(=O)[C@@]12OC3(CCCC3)O[C@@H]1C[C@H]1[C@@H]3CCC4=CC(=O)C=C[C@]4(C)[C@@]3(F)[C@@H](O)C[C@@]12C` as the compound, how does the “AlphaScreen HuR-RNA complex signal Z-score” value read?
Its value is 1.

With `COc1cc2c(cc1OC)Cc1cc(OC)c(OC)cc1Cc1cc(OC)c(OC)cc1C2` as the compound, how does the “AlphaScreen HuR-RNA complex signal Z-score” value read?
Its value is 2.45.

Which “AlphaScreen HuR-RNA complex signal Z-score” value does the source give for `N[C@@H](CC(=O)N1CCn2c(nnc2C(F)(F)F)C1)Cc1cc(F)c(F)cc1F` here?
The value was 2.73.

With `C[C@@H]1O[C@@H](O[C@H]2[C@H](Oc3cc(O)c4c(c3)O[C@H](c3ccc(O)cc3)CC4=O)O[C@H](CO)[C@@H](O)[C@@H]2O)[C@H](O)[C@H](O)[C@H]1O` as the compound, how does the “AlphaScreen HuR-RNA complex signal Z-score” value read?
The value was 0.0824.

`O=C(Nc1ccccc1)OCC(CN1CCCCC1)OC(=O)Nc1ccccc1` (centres undefined) was tested. Which “AlphaScreen HuR-RNA complex signal Z-score” value did it give?
Its value is -0.699.

For `COc1c(O)cc(O)cc1O`, which “AlphaScreen HuR-RNA complex signal Z-score” value is on record?
Its value is 1.2.

`C[C@@H]1O[C@@H](OC[C@H]2O[C@@H](Oc3c(-c4ccc(O)c(O)c4)oc4cc(O)cc(O)c4c3=O)[C@H](O)[C@@H](O)[C@@H]2O)[C@H](O)[C@H](O)[C@H]1O` [RUTOSIDE  (rutin)] was tested. Which “AlphaScreen HuR-RNA complex signal Z-score” value did it give?
Its value is 0.112.

`CCCC(=O)Nc1ccc(OCC(O)CNC(C)C)c(C(C)=O)c1` (centres undefined) was tested. Which “AlphaScreen HuR-RNA complex signal Z-score” value did it give?
Its value is -3.05.

Which “AlphaScreen HuR-RNA complex signal Z-score” value does the source give for `CC(=O)Nc1ccc(OCC(O)CNC(C)C)cc1` (centres undefined) here?
Its value is 2.77.

For `CN1[C@@H]2CC[C@H]1C[C@@H](OC(c1ccccc1)c1ccccc1)C2`, which “AlphaScreen HuR-RNA complex signal Z-score” value is on record?
Its value is 0.456.

With `C=CCc1ccccc1OCC(O)CNC(C)C` (centres undefined) as the compound, how does the “AlphaScreen HuR-RNA complex signal Z-score” value read?
The value was 3.42.

How did the “AlphaScreen HuR-RNA complex signal Z-score” value turn out when `NC[C@H]1CC[C@H](C(=O)O)CC1` was run?
The value was 1.53.

`Oc1c(Cl)cc(Cl)cc1Sc1cc(Cl)cc(Cl)c1O` was tested. Which “AlphaScreen HuR-RNA complex signal Z-score” value did it give?
The value was 0.312.
